# Primary screen of a compound library

Amino acid sequences for entries named in this document (tags omitted). Residues count along the entry.
UniProt Q4DA54, 1-478: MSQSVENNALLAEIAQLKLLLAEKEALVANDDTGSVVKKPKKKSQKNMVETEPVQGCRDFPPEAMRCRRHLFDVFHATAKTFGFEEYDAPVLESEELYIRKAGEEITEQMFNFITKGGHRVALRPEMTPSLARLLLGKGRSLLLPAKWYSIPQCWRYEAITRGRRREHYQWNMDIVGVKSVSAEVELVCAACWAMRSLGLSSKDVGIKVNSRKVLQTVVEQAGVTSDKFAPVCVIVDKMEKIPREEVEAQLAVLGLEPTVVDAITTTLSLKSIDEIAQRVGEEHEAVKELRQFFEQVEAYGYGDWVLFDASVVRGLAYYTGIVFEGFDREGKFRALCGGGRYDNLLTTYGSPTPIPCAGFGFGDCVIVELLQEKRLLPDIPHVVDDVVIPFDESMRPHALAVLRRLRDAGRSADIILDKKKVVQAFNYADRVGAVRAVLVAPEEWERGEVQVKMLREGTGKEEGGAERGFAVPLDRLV
UniProt A4I591, 1-473: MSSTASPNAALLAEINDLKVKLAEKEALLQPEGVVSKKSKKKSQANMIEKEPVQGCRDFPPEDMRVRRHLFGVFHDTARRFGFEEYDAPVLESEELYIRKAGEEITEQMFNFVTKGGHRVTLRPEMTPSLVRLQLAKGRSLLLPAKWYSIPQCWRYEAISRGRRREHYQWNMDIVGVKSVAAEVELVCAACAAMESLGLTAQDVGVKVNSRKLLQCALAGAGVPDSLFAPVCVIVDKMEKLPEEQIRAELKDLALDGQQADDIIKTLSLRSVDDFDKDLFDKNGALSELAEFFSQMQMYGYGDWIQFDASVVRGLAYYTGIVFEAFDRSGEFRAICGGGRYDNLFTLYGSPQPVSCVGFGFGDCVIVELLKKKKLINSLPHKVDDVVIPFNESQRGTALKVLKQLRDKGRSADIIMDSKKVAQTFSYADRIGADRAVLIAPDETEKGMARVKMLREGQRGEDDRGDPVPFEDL

Values are the deposited “Percent Effect”, in %. The record does not define 0% and 100%; most values in the screen are far below 50% and negative numbers occur (in some assays of this library far below -100). This is an unselected part of the compounds tested.

TcHisRS: 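Enzyme assay of histidyl-tRNA synthetase; the read-out is not stated. Target: Histidine-tRNA ligase, Trypanosoma cruzi CL Brener (UniProt Q4DA54). Compounds at 30 µM. Higher reads as stronger inhibition (inferred: compounds with an IC50 in retests scored well above the rest). Of about 69,000 compounds tested this way, about 31 (0.045%) reached 50% or more in at least one test.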
LiHisRS: 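Enzyme assay of histidyl-tRNA synthetase; the read-out is not stated. Target: Histidine-tRNA ligase, Leishmania infantum (UniProt A4I591). Concentration: 30 µM. Direction is inferred from retests: higher values go with stronger inhibition. The assay is labelled LdHisRS but filed under L. infantum. Of about 69,000 compounds tested this way, about 410 (0.6%) reached 50% or more in at least one test.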

- O=C1CC2(CCNCC2)C(=O)N1c1cccc(F)c1 | TcHisRS: 0%; LiHisRS: 7.692%
- COc1ccc(OC)c(C2CCN(C(=O)C3CCOCC3)C2)c1 (stereo unspecified) | TcHisRS: 6.145%; LiHisRS: 10.53%
- CN1C(=O)CO[C@H](c2ccc(NC(=O)NC(C)(C)C)cc2)[C@H]1CO | TcHisRS: 4.348%; LiHisRS: 12.16%
- Cc1ccc(CNCCC(O)(c2nccn2C)C(F)(F)F)o1 (stereo unspecified) | TcHisRS: 1.961%; LiHisRS: 15.97%
- CN1CC(=O)N(c2cccc(F)c2)CC12CCN(CC1CC1)C2 (stereo unspecified) | TcHisRS: 0.8%; LiHisRS: 9.735%
- Cc1cc(C(O)CCNS(=O)(=O)c2ccc(Cl)s2)c(C)o1 (stereo unspecified) | TcHisRS: 4.327%; LiHisRS: 19.51%
- COCCOc1ccc(NC(=O)N2CCCC2c2cccs2)cn1 (stereo unspecified) | TcHisRS: 4.202%; LiHisRS: 11.57%
- COC(=O)C(NC(=O)c1ccc(C)cc1C)c1cccnc1 (stereo unspecified) | TcHisRS: 5.455%; LiHisRS: 15.56%
- O=C(C1CCCC1)N1CC2(CCCN(C3COC3)C2)Cc2ccccc21 (stereo unspecified) | TcHisRS: 5.325%; LiHisRS: 15.17%
- COCCN1CCCC(CCCc2ccccn2)(C(N)=O)C1 (stereo unspecified) | TcHisRS: 4.255%; LiHisRS: 17.71%
- O=C(c1ccc(-n2cccc2)c(F)c1)N1CCCN2CCCC2C1 (stereo unspecified) | TcHisRS: 1.667%; LiHisRS: 11.71%
- CN(Cc1ccccc1)C(=O)CN1CCCCC1Cn1cncn1 (stereo unspecified) | TcHisRS: 6.548%; LiHisRS: 37.63%
- CCc1ccc(C2NCCc3cc4c(cc32)OCCO4)cc1 (stereo unspecified) | TcHisRS: 5.78%; LiHisRS: 10.31%
- Cc1ncccc1OC1(C(=O)NCc2noc(C(C)C)n2)CCNCC1 | TcHisRS: 6.977%; LiHisRS: 9.836%
- COc1ccc(OCC(=O)NS(=O)(=O)c2cc(C)ccc2C)cc1 | TcHisRS: 10.34%; LiHisRS: 16.67%
- CCCN(CCC)S(=O)(=O)NCCc1cc(C)ccc1OC | TcHisRS: 2.597%; LiHisRS: 11.43%
- CC(C)Oc1cccc(C(=O)C2CCCN(S(=O)(=O)C(C)C)C2)c1 (stereo unspecified) | TcHisRS: 0%; LiHisRS: -1.887%
- Cc1ccsc1[C@@H]1CCN(C(=O)CCc2cc(O)no2)C[C@H]1O | TcHisRS: -2.97%; LiHisRS: 23.29%
- COc1cccc2cc(CNCc3ccnc(N4CCOCC4)c3)oc12 | TcHisRS: 8.271%; LiHisRS: 7.143%
- CCCS(=O)(=O)NC1CCc2c(ccc(=O)n2CC2CC2)C1 (stereo unspecified) | TcHisRS: 7.143%; LiHisRS: 11%
- O=C(c1ccccc1-n1cccn1)N1CCC(Nc2cccnn2)CC1 | TcHisRS: 2.624%; LiHisRS: 4.425%
- COc1cccc(-n2c(SCC(=O)O)nnc2-c2cn[nH]c2)c1 | TcHisRS: 2.174%; LiHisRS: 9.091%
- CC1=N[C@@]2(CC[C@@H]3CN(Cc4ccccc4C)C[C@@H]32)C(=O)N1CC1CC1 | TcHisRS: 6.25%; LiHisRS: 10.09%
- CCc1noc(C(C)N2CCN(Cc3cnc(C)cn3)CC2)n1 (stereo unspecified) | TcHisRS: 8.621%; LiHisRS: -2.632%
- CC(O)CN1CCC(CNCc2c[nH]nc2C(C)(C)C)CC1 (stereo unspecified) | TcHisRS: 3.008%; LiHisRS: 4.762%
- COc1c(CNCCNC(=O)Cc2ccc(F)cc2)c(C)nn1C | TcHisRS: -4.981%; LiHisRS: 3.077%
- CN(C)[C@@H]1CCN(C(=O)Cc2cccs2)[C@H]1Cc1ccncc1 | TcHisRS: -1.961%; LiHisRS: -2%
- Cc1cccn2cc(CNCc3cccc4c3OCCCO4)nc12 | TcHisRS: 5.155%; LiHisRS: 38.46%
- CCN(Cc1cccc(NC(=O)COC)c1)C(C)=O | TcHisRS: 4.516%; LiHisRS: 19.19%
- Cc1noc(C)c1CN(C)c1ncnc2onc(C)c12 | TcHisRS: 2.809%; LiHisRS: 15.38%
- O=C(Nc1ccc(F)cc1)N1CCN(Cc2noc(C3CC3)n2)CC1 | TcHisRS: 0.5634%; LiHisRS: 4.348%
- Cc1nc(CN2CCCC2Cn2cccn2)nc2ccccc12 (stereo unspecified) | TcHisRS: 7.879%; LiHisRS: 15.56%
- Cc1cnc2n(c1=O)CC(C(=O)Nc1ccccc1Cl)CS2 (stereo unspecified) | TcHisRS: 8.264%; LiHisRS: 11.54%
- Cc1ccc(-c2snnc2C(=O)NCCCO)cc1 | TcHisRS: 4.018%; LiHisRS: 11.11%
- Cc1cnc(NCCCN2CCc3ccccc32)nc1 | TcHisRS: 13.4%; LiHisRS: 14.94%
- CCc1ncc(C(=O)N2CCN(Cc3ncccc3C)CC2)cn1 | TcHisRS: 0%; LiHisRS: 6.522%
- O=C(c1ccc2c(c1)COC2)N1CCN(CC2CC2)CC1 | TcHisRS: 5.263%; LiHisRS: -37.08%
- Cn1cnc(S(=O)(=O)N2CCCc3cccc(F)c32)c1Cl | TcHisRS: 10%; LiHisRS: 18.75%
- Cc1ncc2c(n1)CN(Cc1nnc(-c3occc3C)o1)CC2 | TcHisRS: 7.28%; LiHisRS: 49.23%
- CCC(C)CNC(=O)[C@@H]1CCCN1c1nccc(Nc2ccccc2)n1 (stereo partly specified) | TcHisRS: 6.818%; LiHisRS: 7.921%
- CCn1nnnc1-c1cccc(NC(=O)COC2CCCC2)c1 | TcHisRS: 5.263%; LiHisRS: 2.74%
- CNC(=O)C1Cn2ccnc2C2(CCN(C(=O)NC3CCCC3)CC2)O1 (stereo unspecified) | TcHisRS: 3.175%; LiHisRS: 11.82%

From ChEMBL document CHEMBL3988442, “University of Dundee, Small-Polar-MMV Screening Library” (2021).